Test results taken from PubChem BioAssay AID2417 (National Center for Advancing Translational Sciences (NCATS), 2010).
Among all 140,000 compounds or so, about 4,300 (3.1%) were called active. Inconclusive results, whose numbers are uncertain, are shown with a selection of clear calls.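 The calls were made as follows: active = readout at or below -70, meaning at least 70% loss of cells showing the perinucleolar compartment, a nuclear body marking cancer cells; inconclusive = readout between -30 and a set limit; inactive = the rest.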

Assay: High Content Assay for Compounds that inhibit the Assembly of the Perinucleolar Compartment;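 also: plate controls were DMSO wells for no effect and camptothecin positive control wells for full effect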
Conditions: PC3M PTB-GFP, PNC prevalence imaging, 16 h; at 10 µM; active compounds read low
In short: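 Read-out is percentage of cells bearing a perinucleolar compartment, from automated 20x imaging of fixed, Hoechst-stained PC3M PTB-GFP cells. Cells were seeded 4 h, then exposed 16 h to compound (23 nl of library stock) in duplicate plates.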

SMILES | activity change (PNC), negative = inhibition
CC(=O)Nc1ccc(S(=O)(=O)NCCSc2ccccn2)cc1 | inconclusive: -58.6%
Cc1cc(S(=O)(=O)NCc2ccccc2)ccc1OCC(=O)Nc1cccc([N+](=O)[O-])c1 | inconclusive: -46.8%
CC(=O)n1nc2nc(C)cc(C)c2c1N | inconclusive: -32.1%
CCOC(=O)C1=C(c2ccccc2)OC(N)=C(C#N)C1C(C)C (configuration not stated) | inconclusive: -70.3%
O=C(CCN1C(=O)S/C(=C/c2ccc(Cl)cc2)C1=O)N1CCOCC1 | inconclusive: -40.4%
Cc1noc(/C=C/N(C)C)c1S(=O)(=O)N1CCC(C(=O)O)CC1 | inconclusive: -37.7%
CN(C)CCNC=C(C(=O)Nc1ccc(Cl)cc1Cl)C(=O)Nc1ccc(Cl)cc1Cl | inconclusive: -52%
CCn1cc(C(=O)O)c(=O)c2cc(F)c(N3CCN(S(=O)(=O)c4ccc(NC(=O)OC)cc4)CC3)cc21 | inconclusive: -43.7%
CCC(C)NC(=S)N(CCc1ccccc1)Cc1cc2cc(OC)c(OC)cc2[nH]c1=O (configuration not stated) | inconclusive: -46%
Cc1cccc(Oc2ccccc2NC(=O)c2cnccn2)c1 | inactive: 20.8%
O=C(/C=C/c1ccccc1)NC(=S)Nc1cccnc1 | inactive: -26.4%
Cc1cc(N2CCN(c3ccccc3)CC2)nc(-c2ccccc2)n1 | inconclusive: -33.5%
O=C(NCCCO)/C(=C/c1ccco1)NC(=O)c1ccc(Br)o1 | inactive: -4.47%
COc1ccc(NC(=O)CN2CCc3ccccc3C2)cc1S(=O)(=O)N1CCOCC1 | inconclusive: -40.4%
COc1cccc(-n2nnc3c(=O)n(CC(=O)NCC4CCCO4)cnc32)c1 (configuration not stated) | inconclusive: -67.6%
O=C(Oc1nsnc1N1CCOCC1)N(c1ccccc1)c1ccccc1 | inconclusive: -52.5%
CCN(CC)Cc1c(O)ccc2c(=O)c(Oc3ccccc3OC)coc12 | active: -80.1%
CCOC(=O)c1ccc(-n2c(N)c(C(=O)NCc3ccco3)sc2=S)cc1 | inactive: -21%
N#Cc1c(-c2ccc(Cl)cc2)ccn2nc(C3CCCCC3)nc12 | inconclusive: -30.8%
c1cncc(-c2nnc(SCc3cccc4ccccc34)o2)c1 | inconclusive: -63.3%
COc1cc(/C=C(\C#N)c2nc3ccccc3[nH]2)c([N+](=O)[O-])cc1OCc1ccccc1 | inactive: -8.43%
CCOC(=O)c1ccc2nc3c(cc2c1)CCS3 | inactive: -1.36%
O=C1CCCCCCC1Sc1ccccc1[N+](=O)[O-] (configuration not stated) | inactive: -2.94%

SMILES | activity change (PNC), negative = inhibition
N#Cc1c(N)nc(SCC(=O)NC2CCCCC2)c(C#N)c1-c1ccc(Cl)cc1 | inconclusive: -34.4%
O=C(CS(=O)(=O)c1ccccc1)c1ccc2c(c1)OCCO2 | inconclusive: -35.4%
Cc1c(OCc2ccccc2)cccc1OCc1ccccc1 | inactive: 58.2%
Cn1cc(SCC(=O)Nc2nc3ccccc3s2)c2ccccc21 | active: -88.5%
O=C(COC(=O)c1ccc(S(=O)(=O)N2CCCC2)cc1)NCc1ccc(Cl)cc1 | inconclusive: -32.1%
O=C(NC(=S)NC1CCSC1=O)c1cccs1 (configuration not stated) | inconclusive: -41.4%
O=C(CCn1c(=O)[nH]c2ccsc2c1=O)N1CCN(Cc2ccc3c(c2)OCO3)CC1 | inconclusive: -43.4%
CCC(C)NC(=O)Nc1ccccc1C (configuration not stated) | inconclusive: -35.2%
C/C(=N\Nc1cccc(Cl)c1)c1ccc(-n2ccnc2)cc1 | inconclusive: -34.3%
CCn1c(SCC(=O)O)nnc1-c1ccccc1 | active: -95.8%
Cc1nc(SCC(=O)c2ccc(F)cc2)n[nH]1 | inconclusive: -31.6%
O=C(/C=C/c1ccc(-c2ccccc2[N+](=O)[O-])o1)c1ccc(F)cc1 | inactive: 94.8%
CCOC(=O)c1sc(NC(=O)CSc2nc3c(c(=O)n2-c2ccc(F)cc2)SCC3)c(C(=O)OCC)c1C | inactive: 24.6%
O=C(N/N=C/c1cccc([N+](=O)[O-])c1)c1ccc2nc[nH]c2c1 | inconclusive: -52.1%
COc1ccc2oc(=O)c(-c3nc4ccccc4o3)cc2c1 | active: -80.8%
Cc1ccc(C(=O)N/N=C\c2ccc([N+](=O)[O-])s2)cn1 | inconclusive: -31.6%
Cc1cc(NC(=O)c2ccc(S(=O)(=O)N(C)C)cc2)no1 | inconclusive: -41.1%
Cc1ccc(-c2noc(CN(C(=O)c3cccs3)C(C)C)n2)cc1 | inconclusive: -41.4%
CCOc1ccc(C(=O)Nc2ccc3c(c2)OCO3)cc1OCC | inconclusive: -76.7%
COCC(=O)n1nc(-c2ccc(Cl)cc2)nc1NCc1ccc(F)cc1 | inconclusive: -40.3%
COCCNC(=S)N/N=C/c1c(C)[nH]c2ccccc12 | inconclusive: -65.6%
CCN1C(=O)/C(=C\N(C(C)=O)c2ccccc2)OC1=S | inconclusive: -59.8%
CCOC(=O)C(NCCCO)c1ccccc1 (configuration not stated) | inconclusive: -34.1%

SMILES | activity change (PNC), negative = inhibition
Cc1ccsc1/C=N/n1c(=S)[nH]nc(C)c1=O | inconclusive: -47.8%
COc1ccc(C(=O)NC2CC(C)(C)Cc3occc32)cc1 (configuration not stated) | inconclusive: -44%
O=C(NC1CCCc2ccccc21)c1cncc(Br)c1 (configuration not stated) | inactive: -8.23%
Cn1c(CN2CCCCC2)c(C#N)c2ccccc21 | inconclusive: -35.5%
Cc1ccc(S(=O)(=O)N2CCN(CC(=O)NC3CCCc4ccccc43)CC2)cc1C (configuration not stated) | inactive: 35.9%
Cc1cccc(NC(=O)C2CCCN(c3nc(C)cc(C)n3)C2)c1 (configuration not stated) | inconclusive: -50.3%
COc1cc(C2=NOC(C(=O)NCc3ccccn3)C2)cc(OC)c1OC (configuration not stated) | inconclusive: -39.8%
CC1Cc2ccccc2N1C(=O)Cn1cnc2ccccc2c1=O (configuration not stated) | active: -80.4%
Cc1ccccc1OCCC(=O)Nc1ccc(Cl)cc1F | inconclusive: -45.5%
O=C(Nn1c(Cc2cccs2)nc2ccccc2c1=O)c1ccc(F)c(F)c1 | inconclusive: -52.4%
CC(=O)c1c(O)cc(C(C)C)n(-c2ccccc2)c1=O | inconclusive: -62.9%
CC12CCC(C/C1=N\N=C1\NC(=O)/C(=C\c3cccc(Br)c3)S1)C2(C)C (configuration not stated) | inconclusive: -46.5%
COc1ccc(S(=O)(=O)N2CCOCC2)cc1NC(=O)COC(=O)C1COc2ccccc2O1 (configuration not stated) | active: -92.3%
CCCCN(CCCC)C(=O)c1nsnc1-c1ccccc1O | inconclusive: -48.6%
COc1cccc(C2(c3cccc(OC)c3)CC2C(=O)Nc2ccc(F)cc2)c1 (configuration not stated) | inactive: -20.1%
Cc1ccc(S(=O)(=O)NCc2ccncc2)cc1 | inactive: -26.1%
CCOc1ccccc1-n1c(SCC(N)=O)nnc1-c1ccccc1 | inactive: -13%
CC1(C)CC(=O)c2cc(OCC(=O)N3CCN(c4ccccc4F)CC3)ccc2O1 | inconclusive: -35.6%
CCC(=O)Nc1ccc(F)c(Cl)c1 | active: -106%
Cc1ccc(NC(=O)Cc2noc3ccccc23)cc1 | active: -99.2%
N#Cc1c(N2C(=O)C3C4C=CC(C4)C3C2=O)sc2c1CCC2 (configuration not stated) | inactive: 11.3%
COC(=O)C1=C(C)OC(N)=C(C#N)C1c1cc(C)sc1C (configuration not stated) | inconclusive: -58.8%
COc1ccc(OCc2ccc(C(=O)NN)cc2)cc1 | inconclusive: -46.7%

SMILES | activity change (PNC), negative = inhibition
CCOc1ccccc1NC(=O)C(=O)NCC1CCCN1CC (configuration not stated) | inconclusive: -32.5%
Cc1ccc(NC(=O)c2ccccc2NS(=O)(=O)c2ccc(F)cc2)cc1S(=O)(=O)N1CCCCC1 | inconclusive: -75.7%
COCCn1c(SCC(=O)c2ccc(F)cc2)nnc1C(C)C | inconclusive: -56.9%
CSc1ccc(/C=N/NC(=O)CN2CCN(Cc3ccccc3Cl)CC2)cc1 | inconclusive: -66.8%
CC1CCCCC1NC(=O)CSc1nncs1 (configuration not stated) | inconclusive: -40.3%
CCOC(=O)c1[nH]c(C)c(C(=O)Nc2cc(Cl)ccc2C)c1C | inconclusive: -77.5%
CCc1cc(=O)oc2cc(C)c3c(C)coc3c12 | inconclusive: -41.9%
Brc1ccc(-c2nn3c(-c4ccco4)nnc3s2)o1 | inactive: 13.6%
COc1ccc2c(C)cc(SCC(=O)Nc3c(C)n(C)n(-c4ccccc4)c3=O)nc2c1 | inconclusive: -41.1%
CCCC(=O)NC(=S)Nc1cccc(NC(=O)c2ccccc2Cl)c1 | inactive: -23%
Cc1cccc(-c2nnc(SCC3CNC(=O)O3)n2-c2ccc(Cl)cc2)c1 (configuration not stated) | inconclusive: -36.7%
O=C(NCc1ccccc1)c1onc(CSc2ccc(F)cc2)c1C(=O)NCCCN1CCOCC1 | inactive: -5.69%
Cc1nc2ccc(NC(=O)c3cc(S(=O)(=O)N(C)c4ccccc4)ccc3Cl)cc2s1 | inconclusive: -32.2%
Cc1cccc(-c2csc(N)c2C(=O)OC(C)C)c1 | inconclusive: -33.2%
CC(/C=N/n1c(-c2ccc(Cl)cc2)n[nH]c1=S)=C\c1ccco1 | inconclusive: -65.5%
CNc1ccc(C2(O)C(=O)c3ccccc3C2=O)cc1 | inconclusive: -51.2%
S=c1[nH]nc(-c2ccc3ccccc3n2)n1-c1cc(Cl)cc(Cl)c1 | inactive: -17.3%
O=C1/C(=C\c2cccnc2)Sc2ccccc21 | inactive: -13.5%
CCOC(=O)C1=C(Cc2ccc(C)cc2)C(=O)c2ccccc2C1=O | inactive: 24.1%
COC(=O)CSc1nc(N)c2c3c(sc2n1)CCCC3 | inconclusive: -38.6%
COc1ccc2nc(NC(=O)Cc3cccs3)sc2c1 | inconclusive: -60.7%
O=C(O)CCN1C(=O)C2C3C=CC(C3)C2C1=O (configuration not stated) | inconclusive: -60.3%
O=C(N/N=C/c1cccc(OC(=O)N2CCOCC2)c1)c1cccs1 | inactive: 8.07%

Random excerpt: five records from the list.
SMILES | activity change (PNC), negative = inhibition
CC(/C=N/n1c(-c2ccc(Cl)cc2)n[nH]c1=S)=C\c1ccco1 | inconclusive: -65.5%
CCc1cc(=O)oc2cc(C)c3c(C)coc3c12 | inconclusive: -41.9%
S=c1[nH]nc(-c2ccc3ccccc3n2)n1-c1cc(Cl)cc(Cl)c1 | inactive: -17.3%
COc1ccc2c(C)cc(SCC(=O)Nc3c(C)n(C)n(-c4ccccc4)c3=O)nc2c1 | inconclusive: -41.1%
CNc1ccc(C2(O)C(=O)c3ccccc3C2=O)cc1 | inconclusive: -51.2%
